Record: PubChem BioAssay AID686937 (Drosophila RNAi Screening Center, 2013)
The deposit covers about 23,000 reagents; below is an unselected part of those with a known target gene and a result. 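Reduced-secretion tags in replicate 1 do not always agree with the z-scores; no criterion for assigning the tags was given.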 A plus sign joins genes that one reagent is predicted to hit. Further read-outs or replicates are left out here. Not given: the amount of reagent.

- Purpose: 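Genes whose loss weakens secretory pathway function in fly cells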 (primary screen)
- Cells: Drosophila S2 cells expressing secreted horseradish peroxidase
- Knock-down reagent: long dsRNA against Drosophila genes
- Timing: about 5.5 days (5 days dsRNA, then 12 h reporter induction)
- Conditions: reporter expression induced after 5 days of dsRNA, read 12 h later; inducer not stated
- Measurement: 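Chemiluminescent measurement of peroxidase in the medium 12 h after reporter induction, following 5 days of dsRNA, given as a z-score per plate; higher means more secretion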
- Direction: z-score: higher = more reporter secreted into medium

Osi24 [DRSC12275] → z-score, replicate 1: 0.01
CG7342 [DRSC16230] → z-score, replicate 1: 0.39
exd [DRSC20330] → z-score, replicate 1: 0.13
Dolk [DRSC07143] → z-score, replicate 1: 0.02
Git [DRSC06620] → z-score, replicate 1: 0.38
BBS8 [DRSC00360] → z-score, replicate 1: 0.15
CG31229 [DRSC13309] → z-score, replicate 1: -2.63; phenotype, replicate 1: reduced secretion
CG32374 [DRSC10986] → z-score, replicate 1: 0.14
CG14566 [DRSC11727] → z-score, replicate 1: 0.13
Or42a [DRSC04912] → z-score, replicate 1: 0.2
Mst27D [DRSC00967] → z-score, replicate 1: 0.46
Rrp46 [DRSC15537] → z-score, replicate 1: -1.82; phenotype, replicate 1: reduced secretion
cib [DRSC18660] → z-score, replicate 1: 0.39
CG12728 [DRSC17883] → z-score, replicate 1: 0.4
sr [DRSC13284] → z-score, replicate 1: 0.35
sr [DRSC17067] → z-score, replicate 1: -3.43; phenotype, replicate 1: reduced secretion
BaraA1 + BaraA2 [DRSC05417] → z-score, replicate 1: 0.13
mira [DRSC16998] → z-score, replicate 1: -0.13
clumsy [DRSC03111] → z-score, replicate 1: 0.31
REPTOR [DRSC14626] → z-score, replicate 1: 0.43
CG34426 [DRSC09977] → z-score, replicate 1: 0.3
CG34034 [DRSC13506] → z-score, replicate 1: 0.41
Vha16-4 [DRSC07321] → z-score, replicate 1: 0.09
Frmd5 [DRSC02802] → z-score, replicate 1: 0.2
CG1416 [DRSC03706] → z-score, replicate 1: 0.05

Next part, starting with the last 2 of the part before.
Frmd5 [DRSC02802] → z-score, replicate 1: 0.2
CG1416 [DRSC03706] → z-score, replicate 1: 0.05
bb8 [DRSC15578] → z-score, replicate 1: 0.23
Atg16 [DRSC15052] → z-score, replicate 1: -0.22
Atg16 [DRSC15300] → z-score, replicate 1: 0.25
Atg16 [DRSC15375] → z-score, replicate 1: -0.06
eag [DRSC19067] → z-score, replicate 1: 0.11
eag [DRSC20328] → z-score, replicate 1: 0.31
Idgf2 [DRSC03350] → z-score, replicate 1: 0.49
Spt7 [DRSC19997] → z-score, replicate 1: 0.26
sut1 [DRSC07700] → z-score, replicate 1: 0.37
Gdap1 [DRSC10437] → z-score, replicate 1: 0.19
CG12025 [DRSC08230] → z-score, replicate 1: 0.36
CG43138 [DRSC17527] → z-score, replicate 1: 0.5
CG13250 [DRSC11698] → z-score, replicate 1: 0.39
MED10 [DRSC10474] → z-score, replicate 1: -4.57; phenotype, replicate 1: reduced secretion
Hakai [DRSC02031] → z-score, replicate 1: 0.32
